# Results of single-concentration screens

Measurements from “University of Dundee, Small-Polar-MMV Screening Library” (2021), ChEMBL document CHEMBL3988442.

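Phenotypic screen: M. tuberculosis growth, glucose 7H9 medium, 3 days; the read-out is not stated. Concentration: 500 µM. The record gives no direction; compounds that gave an IC50 in retests scored well above the rest, so higher reads as more growth inhibition. About 18,000 compounds were tested under these conditions; 7.9% (about 1,400) showed 50% or more at least once.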

The filed quantity is “Percent Effect” (%).
The controls that fix the scale are not given in the record; negative values are as filed.
The compounds are a random part of those screened.

CC1CN(C(=O)CC2CCC2)c2ccccc2C(=O)N1 (stereo not shown) read 4.458%. Result for O=S1(=O)CCC(n2cccn2)C1 (stereo not shown) was 7.097%. Cc1ncc(C(=O)N2C[C@@H]3CCCN[C@@H]3C2)c(C)n1 read -16.52%. With COc1cccn(CC(=O)N(C)C2CCSCC2)c1=O the screen gave 3.747%. With OCCCNCC(F)(F)F the screen gave -16.36%.

For COCCNC(=O)c1ccc2c(c1)OCCCO2 the result was 29.2%. Cc1nsc(C(=O)NCCCn2cccn2)n1 gave 45.49%. For Cc1ccc(NC(=O)N2CCC(O)C2)cc1OC(F)F (stereo not shown) the result was 32.68%. COC1CCN(C(=O)c2cnc3ccccn23)CC1 read 30.04%. Result for CN(CC1CCCCO1)C(=O)c1ccn(C)c(=O)c1 (stereo not shown) was -5.63%.

C[C@]1(O)CCN(c2nnc(-c3ccccc3)s2)C[C@@H]1O read 8.358%. Result for COCC(C)(N)c1ccccc1 (stereo not shown) was -3.394%. Cc1ccccc1CNC(=O)CCNS(C)(=O)=O gave 13.47%. Cn1nc(C(=O)Nc2nc(CC(N)=O)cs2)ccc1=O gave 2.332%. OC[C@H]1CCCN1c1cnc2ccccc2n1 read 35.21%.

With O=C(CNc1ccccc1OC(F)F)N1CCNC1=O the screen gave 40.07%. For c1ccc(N2CCCN3CCCC3C2)nc1 (stereo not shown) the result was 35.48%. With CC1CN(C(=O)CCc2ccccc2)CCO1 (stereo not shown) the screen gave 38.39%. CC(C)NC(=O)NCCCn1nc2n(c1=O)CCCC2 gave 13.98%. Result for Cc1c(C(=O)N(C)Cc2ccc(C#N)cc2)cnn1C was 6.296%.

For CCc1nccn1CCNC(=O)CN1CCCC1 the result was 1.876%. For COCCN1CCCN(C(=O)C(C)C)CC1 the result was -0.6368%. Result for O=C(c1cc2ccccc2[nH]1)N1CCCC1 was 2.121%. CCC(=O)N1CCN(C(=O)CC)C(C)C1 (stereo not shown) read 18.65%. CO[C@@H]1COCC[C@H]1NC(=O)CCc1ccc(O)cc1 gave -13.24%.

COCCN(C(=O)c1cccc(C)c1C)C(C)C(N)=O (stereo not shown) gave 1.285%. NCc1c(C(N)=O)oc2ccccc12 read 37.71%. CS(=O)(=O)CCSCc1ccn(-c2ccc(F)cc2)n1 read -12.03%. CN1Cc2ccccc2CC1=O read -11.02%.